Reference: patent US8557849B2 (priority 2008, dated 2013)
Some of these results come from one statement about several compounds together.

Columns and labels:
Plasmopara viticola = experiment: Plasmopara test (grapevines) / protective; assay type: in vivo; conditions: 100 ppm of active ingredient, evaluated 6 days after inoculation
Phytophthora infestans = assay type: in vivo; conditions: tomato, preventive, 500 ppm of active ingredient, evaluated 7 days after inoculation

SMILES: CCCCCC(=O)Nc1cccc(C(C)O/N=C(/c2ccccc2)c2nnnn2C)n1 (stereo not drawn) [Example 17]
- efficacy (Plasmopara viticola): ≥ 70%
- efficacy (Phytophthora infestans): ≥ 70%

SMILES: CC(ON=C(c1ccccc1)c1nnnn1C)c1csc(C#CCC2CCCC2)n1 (stereo not drawn) [Example 4]
- efficacy (Phytophthora infestans): ≥ 70%

SMILES: CC(ON=C(c1ccccc1)c1nnnn1C)c1csc(C#CC2CC2)n1 (stereo not drawn) [Example 2, N-{1-[2-(cyclopropylethynyl)-1,3-thiazol-4-yl]ethoxy}-1-(1-methyl-1H-tetrazol-5-yl)-1-phenylmethanimine]
- efficacy (Plasmopara viticola): ≥ 70%
- efficacy (Phytophthora infestans): ≥ 70%

SMILES: CC(ON=C(c1ccccc1)c1nnnn1C)c1cccc(N)n1 (stereo not drawn) [Example 16, 6-[1-({[(1-methyl-1H-tetrazol-5-yl)(phenyl)methylene]amino}oxy)ethyl]pyridin-2-amine]
- efficacy (Phytophthora infestans): ≥ 70%

SMILES: CCCCCOC(=O)Nc1cccc(C(C)O/N=C(/c2ccccc2)c2nnnn2C)n1 (stereo not drawn) [Example 18]
- efficacy (Plasmopara viticola): ≥ 70%
- efficacy (Phytophthora infestans): ≥ 70%

SMILES: CCCCC#Cc1nc(C(C)ON=C(c2ccccc2)c2nnnn2C)cs1 (stereo not drawn) [Example 6]
- efficacy (Plasmopara viticola): ≥ 70%
- efficacy (Phytophthora infestans): ≥ 70%

SMILES: CC(ON=C(c1ccccc1)c1nnnn1C)c1csc(C#CCC2CCCCC2)n1 (stereo not drawn) [Example 5]
- efficacy (Plasmopara viticola): ≥ 70%
- efficacy (Phytophthora infestans): ≥ 70%

SMILES: CC(ON=C(c1ccccc1)c1nnnn1C)c1ccccn1 (stereo not drawn) [Example 11]
- efficacy (Phytophthora infestans): ≥ 70%

SMILES: CC(ON=C(c1ccccc1)c1nnnn1C)c1csc(C#CCCCc2ccccc2)n1 (stereo not drawn) [Example 3]
- efficacy (Plasmopara viticola): ≥ 70%
- efficacy (Phytophthora infestans): ≥ 70%
